Measured values from patent publication US20090137002A1 (published 2009).
Results are given in words; binding and its absence hold for the method and conditions named. Some binding calls cover weakened binding; strength is not graded here.

Sequences of proteins named here, by UniProt entry; tags and fusion partners are left off. Residues count along the entry.
UniProt P54760, residues 16-987: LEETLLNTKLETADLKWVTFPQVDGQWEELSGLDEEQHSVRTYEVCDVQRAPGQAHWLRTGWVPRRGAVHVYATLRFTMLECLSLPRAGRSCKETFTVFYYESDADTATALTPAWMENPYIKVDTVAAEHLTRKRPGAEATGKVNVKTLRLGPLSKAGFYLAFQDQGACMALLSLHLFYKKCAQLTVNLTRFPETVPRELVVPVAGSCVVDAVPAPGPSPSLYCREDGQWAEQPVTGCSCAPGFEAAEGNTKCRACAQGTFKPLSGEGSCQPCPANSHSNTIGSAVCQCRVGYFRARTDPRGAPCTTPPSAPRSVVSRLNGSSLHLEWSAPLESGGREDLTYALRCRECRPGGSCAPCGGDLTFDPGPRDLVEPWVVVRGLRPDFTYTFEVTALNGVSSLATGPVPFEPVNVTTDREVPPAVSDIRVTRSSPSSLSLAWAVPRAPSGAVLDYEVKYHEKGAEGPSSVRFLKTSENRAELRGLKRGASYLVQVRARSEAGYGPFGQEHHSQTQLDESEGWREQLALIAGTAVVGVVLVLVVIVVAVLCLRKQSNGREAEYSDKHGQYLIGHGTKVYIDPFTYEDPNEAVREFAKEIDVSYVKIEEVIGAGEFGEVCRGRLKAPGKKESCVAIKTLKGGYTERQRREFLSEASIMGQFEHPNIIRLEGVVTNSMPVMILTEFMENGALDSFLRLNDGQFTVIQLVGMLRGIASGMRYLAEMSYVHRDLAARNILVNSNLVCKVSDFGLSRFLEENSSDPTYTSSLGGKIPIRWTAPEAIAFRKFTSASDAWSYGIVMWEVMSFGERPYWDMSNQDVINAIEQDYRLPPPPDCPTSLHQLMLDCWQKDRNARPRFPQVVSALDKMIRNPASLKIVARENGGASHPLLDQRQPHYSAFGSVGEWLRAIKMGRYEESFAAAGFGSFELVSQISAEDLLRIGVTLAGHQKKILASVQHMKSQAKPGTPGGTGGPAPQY

Legend:
[1] = molecular target: myc-tagged human EphB4 on transfected CHO cells (human) (UniProt P54760); experiment: FACS titration of IgG4-Pro on CHO-EphB4 cells
[2] = molecular target: myc-tagged human EphB4 on transfected CHO cells (human) (UniProt P54760); experiment: FACS competition on CHO-EphB4 cells, competitor murine ephrin-B2

B1: MOR07724 IgG4-Pro (antibody, V domains shown)
VH: QVQLVESGGGLVQPGGSLRLSCAASGFTFNNAWMSWVRQAPGKGLEWVSGISADGVHKFYADSVKGRFTISRDNSKNTLYLQMNSLRAEDTAVYYCARKGMSFYNNKYAKSMFDLWGQGTLVTVSS
VL: DIELTQPPSVSVAPGQTARISCSGDNLGKKYVHWYQQKPGQAPVLVIYYDSKRPSGIPERFSGSNSGNTATLTISGTQAEDEADYYCSAWTTTMMHIVFGGGTKLTVLG
notes: Fab MOR07724 converted into human IgG4-Pro format
[1]
  binding: binds
[2]
  binding: binds
